Assay results published in patent US6677358B1, “NIDDM regimen” (Novo Nordisk A/S, priority 1997, dated 2004).

Tested on: NIDDM patients inadequately controlled on metformin alone
Details: mean ± SD, baseline to end of maintenance treatment period

SMILES	Change in HDL cholesterol	Change in LDL cholesterol	Change in total cholesterol	Change in triglycerides
CN(C)C(=N)N=C(N)N [Metformin, metformin]	0.07 mmol/L	0.10 mmol/L	0.13 mmol/L	-0.20 mmol/L
CCOc1cc(CC(=O)N[C@@H](CC(C)C)c2ccccc2N2CCCCC2)ccc1C(=O)O [Repaglinide, (S)-(+)-2-ethoxy-4-[2-[[3-methyl-1-[2-(1-piperidinyl)phenyl]butyl]amino]-2-oxo-ethyl]benzoic acid]	0.09 ± 0.03 mmol/L	0.41 ± 0.12 mmol/L	0.38 ± 0.12 mmol/L	0.09 ± 0.16 mmol/L
